# Reference: publication doi:10.1101/2020.03.28.013060
# No constants are given. Whether binding was seen depends on the method and setting. In cells and extracts the contact can be indirect. Binding can be weak; no strength is given. Where a sequence is shown, tags or fusion partners need not be part of it.
# Target: T1, EGFP-tagged full length wild type NHR-25 (C. elegans) (UniProt Q19345)
# T1 sequence: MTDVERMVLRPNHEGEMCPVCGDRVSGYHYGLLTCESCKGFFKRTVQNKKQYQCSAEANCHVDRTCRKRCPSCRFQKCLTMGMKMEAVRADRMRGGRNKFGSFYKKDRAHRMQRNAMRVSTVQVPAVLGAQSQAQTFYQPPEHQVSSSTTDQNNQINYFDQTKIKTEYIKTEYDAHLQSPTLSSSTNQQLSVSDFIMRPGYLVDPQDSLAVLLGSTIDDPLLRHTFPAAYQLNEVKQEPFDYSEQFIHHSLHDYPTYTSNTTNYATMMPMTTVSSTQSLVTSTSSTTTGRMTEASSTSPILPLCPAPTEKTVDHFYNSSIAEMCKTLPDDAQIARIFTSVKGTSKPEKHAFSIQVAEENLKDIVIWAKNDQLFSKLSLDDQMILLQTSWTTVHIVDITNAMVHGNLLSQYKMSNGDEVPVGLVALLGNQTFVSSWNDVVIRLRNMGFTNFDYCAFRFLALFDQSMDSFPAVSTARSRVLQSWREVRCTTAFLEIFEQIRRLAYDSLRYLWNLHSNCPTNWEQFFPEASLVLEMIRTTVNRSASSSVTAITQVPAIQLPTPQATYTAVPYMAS
# Assay: co-IP
substance,measurement,value
FLAG-tagged wild-type LIR-2 (C. elegans),binding,binds
